Test results taken from article PMC11602137.

By UniProt entry, the sequences of proteins in these tests, tags left out.
UniProt Q9UL03: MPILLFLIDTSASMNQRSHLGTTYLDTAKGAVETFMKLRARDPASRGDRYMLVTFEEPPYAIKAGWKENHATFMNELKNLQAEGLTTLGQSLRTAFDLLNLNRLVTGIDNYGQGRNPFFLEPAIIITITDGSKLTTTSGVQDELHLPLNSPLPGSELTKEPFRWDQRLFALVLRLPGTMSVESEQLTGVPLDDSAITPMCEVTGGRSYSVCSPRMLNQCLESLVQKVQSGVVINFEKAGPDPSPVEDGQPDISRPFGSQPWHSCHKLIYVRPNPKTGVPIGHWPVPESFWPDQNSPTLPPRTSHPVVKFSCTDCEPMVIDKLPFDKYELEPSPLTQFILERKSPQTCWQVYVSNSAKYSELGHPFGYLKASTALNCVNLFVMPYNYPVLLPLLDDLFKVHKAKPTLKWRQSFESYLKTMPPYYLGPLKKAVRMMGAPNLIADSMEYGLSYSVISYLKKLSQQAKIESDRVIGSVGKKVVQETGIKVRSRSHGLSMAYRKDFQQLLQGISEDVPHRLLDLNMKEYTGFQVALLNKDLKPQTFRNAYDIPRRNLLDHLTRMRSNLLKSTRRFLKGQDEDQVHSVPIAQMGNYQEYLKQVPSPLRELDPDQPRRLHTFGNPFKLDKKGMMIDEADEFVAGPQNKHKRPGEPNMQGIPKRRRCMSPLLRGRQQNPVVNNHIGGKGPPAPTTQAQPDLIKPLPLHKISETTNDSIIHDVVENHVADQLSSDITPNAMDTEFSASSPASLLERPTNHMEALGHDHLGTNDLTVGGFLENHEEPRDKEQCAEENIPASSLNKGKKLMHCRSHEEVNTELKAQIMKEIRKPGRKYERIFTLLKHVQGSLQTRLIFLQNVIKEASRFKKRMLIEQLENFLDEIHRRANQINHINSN
UniProt Q96AH0: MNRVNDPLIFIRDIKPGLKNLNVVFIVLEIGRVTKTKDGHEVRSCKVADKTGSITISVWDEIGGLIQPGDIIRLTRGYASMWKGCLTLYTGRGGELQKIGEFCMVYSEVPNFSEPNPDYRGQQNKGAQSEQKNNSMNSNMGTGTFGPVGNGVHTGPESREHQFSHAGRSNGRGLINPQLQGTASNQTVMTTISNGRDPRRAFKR
UniProt Q7Z333: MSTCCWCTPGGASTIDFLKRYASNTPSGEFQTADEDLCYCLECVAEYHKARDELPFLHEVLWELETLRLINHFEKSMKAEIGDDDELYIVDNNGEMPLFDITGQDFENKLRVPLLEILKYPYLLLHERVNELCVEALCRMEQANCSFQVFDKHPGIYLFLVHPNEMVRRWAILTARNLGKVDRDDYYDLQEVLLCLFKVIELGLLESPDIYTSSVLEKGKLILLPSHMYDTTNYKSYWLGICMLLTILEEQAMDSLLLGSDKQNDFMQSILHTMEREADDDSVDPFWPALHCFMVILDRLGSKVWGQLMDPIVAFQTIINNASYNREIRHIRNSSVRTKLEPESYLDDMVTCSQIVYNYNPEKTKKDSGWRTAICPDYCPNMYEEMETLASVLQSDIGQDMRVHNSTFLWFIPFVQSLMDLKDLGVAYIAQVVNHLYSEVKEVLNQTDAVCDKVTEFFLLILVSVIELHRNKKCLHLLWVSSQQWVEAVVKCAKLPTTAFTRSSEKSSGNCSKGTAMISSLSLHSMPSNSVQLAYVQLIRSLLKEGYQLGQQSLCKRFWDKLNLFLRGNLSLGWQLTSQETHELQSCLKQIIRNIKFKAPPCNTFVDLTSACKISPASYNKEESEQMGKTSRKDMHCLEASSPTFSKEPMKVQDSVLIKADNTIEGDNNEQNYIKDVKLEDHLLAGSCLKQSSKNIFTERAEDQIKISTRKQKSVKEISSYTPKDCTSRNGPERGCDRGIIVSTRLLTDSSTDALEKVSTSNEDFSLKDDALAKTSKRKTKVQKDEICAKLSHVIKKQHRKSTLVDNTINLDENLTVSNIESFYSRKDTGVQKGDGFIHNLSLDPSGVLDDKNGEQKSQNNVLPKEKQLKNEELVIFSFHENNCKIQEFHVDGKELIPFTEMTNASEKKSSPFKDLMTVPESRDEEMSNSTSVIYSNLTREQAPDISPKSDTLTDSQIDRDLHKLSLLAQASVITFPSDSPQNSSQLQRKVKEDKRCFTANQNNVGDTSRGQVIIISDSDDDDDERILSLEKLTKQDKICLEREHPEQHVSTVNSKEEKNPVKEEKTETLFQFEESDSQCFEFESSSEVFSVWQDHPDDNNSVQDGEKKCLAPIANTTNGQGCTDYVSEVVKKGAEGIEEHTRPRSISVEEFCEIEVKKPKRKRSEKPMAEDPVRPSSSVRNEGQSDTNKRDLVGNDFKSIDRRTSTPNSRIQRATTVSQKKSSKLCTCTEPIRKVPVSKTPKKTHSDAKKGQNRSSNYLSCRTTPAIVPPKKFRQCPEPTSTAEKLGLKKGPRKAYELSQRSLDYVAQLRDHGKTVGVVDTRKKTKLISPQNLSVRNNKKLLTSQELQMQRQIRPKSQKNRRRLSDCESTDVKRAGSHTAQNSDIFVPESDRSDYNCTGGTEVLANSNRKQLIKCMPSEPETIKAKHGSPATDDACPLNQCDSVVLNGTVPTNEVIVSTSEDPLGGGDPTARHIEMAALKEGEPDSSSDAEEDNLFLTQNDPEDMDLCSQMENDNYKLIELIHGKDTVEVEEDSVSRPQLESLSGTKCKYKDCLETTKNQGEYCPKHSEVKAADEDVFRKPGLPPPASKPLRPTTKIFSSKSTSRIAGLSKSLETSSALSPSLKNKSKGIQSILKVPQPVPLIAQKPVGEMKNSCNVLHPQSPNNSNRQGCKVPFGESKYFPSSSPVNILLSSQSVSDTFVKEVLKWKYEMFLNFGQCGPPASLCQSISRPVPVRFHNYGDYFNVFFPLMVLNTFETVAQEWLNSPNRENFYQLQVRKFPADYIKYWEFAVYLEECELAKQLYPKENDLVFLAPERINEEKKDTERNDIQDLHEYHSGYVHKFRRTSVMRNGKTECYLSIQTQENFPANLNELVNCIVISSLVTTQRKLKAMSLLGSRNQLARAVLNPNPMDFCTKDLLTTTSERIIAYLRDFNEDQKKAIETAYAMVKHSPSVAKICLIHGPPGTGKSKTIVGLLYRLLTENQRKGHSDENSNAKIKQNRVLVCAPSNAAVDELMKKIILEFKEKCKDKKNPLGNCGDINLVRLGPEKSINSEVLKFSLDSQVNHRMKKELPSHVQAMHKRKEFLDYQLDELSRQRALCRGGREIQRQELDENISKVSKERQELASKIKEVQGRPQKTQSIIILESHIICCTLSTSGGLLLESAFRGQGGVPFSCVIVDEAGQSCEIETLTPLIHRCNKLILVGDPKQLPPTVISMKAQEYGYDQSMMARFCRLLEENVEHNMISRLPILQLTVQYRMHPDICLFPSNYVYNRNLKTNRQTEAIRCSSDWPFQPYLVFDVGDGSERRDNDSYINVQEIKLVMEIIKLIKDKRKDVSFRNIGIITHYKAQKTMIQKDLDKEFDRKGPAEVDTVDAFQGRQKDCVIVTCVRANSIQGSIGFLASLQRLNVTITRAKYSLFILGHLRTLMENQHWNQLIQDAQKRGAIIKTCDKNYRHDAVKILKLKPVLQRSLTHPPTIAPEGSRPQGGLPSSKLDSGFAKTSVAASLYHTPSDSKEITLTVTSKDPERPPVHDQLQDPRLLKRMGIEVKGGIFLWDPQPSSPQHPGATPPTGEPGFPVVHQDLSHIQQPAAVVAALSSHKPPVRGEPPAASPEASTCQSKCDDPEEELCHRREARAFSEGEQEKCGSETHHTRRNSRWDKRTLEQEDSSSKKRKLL
UniProt Q9BQ15: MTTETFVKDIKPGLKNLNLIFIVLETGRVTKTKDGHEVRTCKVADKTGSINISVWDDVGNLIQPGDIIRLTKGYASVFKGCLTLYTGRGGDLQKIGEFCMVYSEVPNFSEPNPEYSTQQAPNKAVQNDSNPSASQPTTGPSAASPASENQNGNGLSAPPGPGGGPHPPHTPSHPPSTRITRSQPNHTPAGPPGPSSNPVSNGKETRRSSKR

Target: FLAG-tagged INTS6 (FLAG-INTS6) (UniProt Q9UL03)
Experiment: affinity purification with mass spectrometry; anti-FLAG M2 affinity gel from nuclear lysate (0.42 M NaCl extract) of HEK293 cells stably expressing FLAG-INTS6 or mock, washes with 0.5 M KCl and 100 mM KCl, FLAG-peptide elution, mass spectrometry

binding	Substance
binds	NABP1 (hSSB2) (from UniProt Q96AH0 1-204)
binds	senataxin (SETX) (from UniProt Q7Z333 1-2677)
binds	hSSB1 (NABP2) (from UniProt Q9BQ15 1-211)

Results are given in words; binding and its absence hold for the method and conditions named. Binding seen in cells or lysates may run through a third protein. Here binding means that the protein was enriched with, or labelled near, the bait; the list need not be complete.
